# Results from US4072810A, “Coupled peroxides” (priority 1973, dated 1978).
# How the values were obtained:
# [1] = Vulcanization of urethane rubber formulation (Table II); conditions: 0.010 mole equivalent of peroxide, 340° F., 30 minutes
# [2] = Vulcanization of ethylene-propylene rubber formulation (Table III); conditions: peroxide 0.010 mole equivalent, 340° F., 30 minutes, sulfur 0.33 parts
# [3] = S.P.I. exotherm, curing an unsaturated polyester-styrene resin (Table V); conditions: 115° C., 1% concentration
# Description: An unsaturated polyester resin was made by reacting maleic anhydride (1.0 mole), phthalic anhydride (1.0 mole), and propylene glycol (2.2 mole) until an acid number of 45-50 was obtained. To this was added hydroquinone at a 0.013% concentration. Seven parts of this unsaturated polyester was diluted with 3 parts of monomeric styrene to obtain a homogeneous blend having a viscosity of 13.08 poise and a specific gravity of 1.14. To 20 g. of this blend was added the 0.2 g. of the desired coupled peroxide and the resulting composition placed in a constant temperature bath at 115° C.
# The internal temperature was recorded as function of time. The following results were obtained with some of the coupled compounds (Table V):
# S.P.I. EXOTHERM AT 115° C. AND 1% CONCENTRATION
# IN POLYESTER RESIN PREPARED IN EXAMPLE VIII
Structure (SMILES),300% Modulus [1] [psi],% Elongation [1] [%],300% Modulus [2] [psi],% Elongation [2] [%],Ult. Tensile [2] [psi],Barcol Hardness [3]
"CC(CC(C)(C)OOC(C)(C)C)OC(=O)OC(C)CC(C)(C)OOC(C)(C)C (stereo not drawn) [Di[1,3-dimethyl-3-(t-butylperoxy)butyl] carbonate]",2091,493,1004,567,2118,45
"CC(CC(C)(C)OOC(C)(C)C)OC(=O)CCC(=O)OC(C)CC(C)(C)OOC(C)(C)C (stereo not drawn) [Di[1,3-dimethyl-3-(t-butylperoxy)butyl]succinate]",1472,575,715,710,2096,–
CC(C)(C)OOC(=O)CCOC(=O)OCCC(=O)OOC(C)(C)C [Di[2-(t-butylperoxycarbonyl)ethyl]carbonate],–,–,–,–,–,45
"CC(CC(C)(C)OOC(C)(C)C)OC(=O)OCCOC(=O)OC(C)CC(C)(C)OOC(C)(C)C (stereo not drawn) [Ethylene Bis[1,3-dimethyl-3-(t-butylperoxy)-butyl carbonate]]",2419,375,1089,552,2232,45
